According to patent US20050065327A1:
No constants are given. Whether binding was seen depends on the method and setting. Binding can be weak; no strength is given.

Molecular target: human IL-13 variant (Q130R) with carboxyl terminus affinity tag (baculovirus expressed) (human)
Experiment: BIAcore, IL-13 amine-coupled to CM5 chip (~200 Ru), scFv at ~350, 175 and 88 nM

B1: BAK278D6 scFv (scFv, V domains shown)
VH: EVQLVQSGAEVKKPGASVKVSCKASGYTFRNYGLSWVRQAPGQGLEWMGWISANNGDTNYGQEFQGRITMTTETSTNTAHMELRSLRSDDTAVYYCVRDSSSNWARWFFDLWGKGTMVTVSS
VL: SYVLTQPPSVSVAPGQTARIPCGGNNIGSKLVHWYQQKPGQAPVLVVYDDGDRPSGIPERFSGSNSGNTATLTISRIDAGDEADYYCQVWDTGSDPVVFGGGTKLTVL
In the case of B1, the binding is reported as “binds”.
